Experimental data from paper PMC12784972.
Results are given in words; binding and its absence hold for the method and conditions named. Binding seen in cells or lysates may run through a third protein. Some binding calls cover weakened binding; strength is not graded here.

Amino acid sequences for entries named in this document (tags omitted).
UniProt Q62093: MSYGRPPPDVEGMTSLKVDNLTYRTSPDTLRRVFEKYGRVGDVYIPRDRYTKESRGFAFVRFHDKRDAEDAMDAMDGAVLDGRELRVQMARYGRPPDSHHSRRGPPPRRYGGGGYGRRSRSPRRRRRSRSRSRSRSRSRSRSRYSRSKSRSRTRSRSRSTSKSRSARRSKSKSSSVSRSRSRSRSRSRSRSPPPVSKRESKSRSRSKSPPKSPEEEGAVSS

Assays:
[1] = target: TAR DNA-binding protein-43 (TDP43), wild type, expressed from a transfected plasmid (UniProt Q921F2); test: co-IP; transfected cells, 48 h; lysis buffer 50 mM Tris-HCl pH 7.5, 150 mM NaCl, 10% glycerol, 0.5% NP-40; beads 4 h at 4°C; with and without RNase A treatment (Fig. 8A)
TDP43^Δ316–346 = TDP43^Δ316–346 (UniProt Q921F2); test: co-IP; transfected cells, 48 h; lysis buffer 50 mM Tris-HCl pH 7.5, 150 mM NaCl, 10% glycerol, 0.5% NP-40; IP with anti-MYC beads 4 h at 4°C; TDP43 and its mutants with SRSF2 (Fig. 8C,D)
TDP43^R151A;D247A = TDP43^R151A;D247A (UniProt Q921F2); test: as above
TDP43^G335A = TDP43^G335A (UniProt Q921F2); test: as above
[2] = target: TAR DNA-binding protein-43 (TDP43), wild type, expressed from a transfected plasmid (UniProt Q921F2); test: as above
[3] = target: TDP43, endogenous in mouse fully grown oocytes (mouse (endogenous in fully grown oocytes)) (UniProt Q921F2); test: co-IP; endogenous IP from fully grown (GV) mouse oocytes; protein A beads coupled with TDP-43 antibody or rabbit IgG (Fig. 8B)

Measured: binding

SRSF2 (SC35), expressed in transfected cells for co-IP (from UniProt Q62093 1-221)
not listed: [3]
binds: all other assays above

SRSF2, endogenous in mouse fully grown oocytes (from UniProt Q62093 1-221)
binds: [3]
